Binding data for 4 molecules are collected here from article PMC10066299.

These are yes or no findings as the source states them, for the method shown. Some binding calls cover weakened binding; strength is not graded here. Sequences can lack the tags named with a protein.

For assay [1], the target named is T1, IFT43 with a GFP tag at the C-terminus (human) (UniProt Q96FT9).
T1 sequence: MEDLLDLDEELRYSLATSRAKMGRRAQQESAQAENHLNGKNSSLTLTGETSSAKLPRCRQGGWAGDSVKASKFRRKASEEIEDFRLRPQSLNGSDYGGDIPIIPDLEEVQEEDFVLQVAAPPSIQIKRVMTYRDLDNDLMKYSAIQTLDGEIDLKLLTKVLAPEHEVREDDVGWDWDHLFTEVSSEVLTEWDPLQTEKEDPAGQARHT
The experiment in a line: SEC; FSEC of lysate of HEK293F cells co-expressing the IFT-A subunits, GFP fluorescence of IFT43-GFP monitored; with or without LMNG/CHS added to the lysate; running buffer 20 mM Tris-HCl pH 8.0, 200 mM NaCl, 2 mM DTT, 0.004% LMNG/CHS. For orientation: SEC sorts molecules by how far they enter the pores of the column.

Assay [2] concerns the target T2, IFT43 W174R with a GFP tag at the C-terminus (human) (UniProt Q96FT9).
T2 sequence: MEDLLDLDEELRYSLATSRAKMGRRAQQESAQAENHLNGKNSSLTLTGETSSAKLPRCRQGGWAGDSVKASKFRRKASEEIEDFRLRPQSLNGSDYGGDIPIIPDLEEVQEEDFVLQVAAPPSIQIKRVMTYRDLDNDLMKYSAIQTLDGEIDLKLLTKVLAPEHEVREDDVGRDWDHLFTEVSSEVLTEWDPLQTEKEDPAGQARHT
The assay is described as above.

Assay [3] concerns the target T3, IFT43 W174S with a GFP tag at the C-terminus (human) (UniProt Q96FT9).
T3 sequence: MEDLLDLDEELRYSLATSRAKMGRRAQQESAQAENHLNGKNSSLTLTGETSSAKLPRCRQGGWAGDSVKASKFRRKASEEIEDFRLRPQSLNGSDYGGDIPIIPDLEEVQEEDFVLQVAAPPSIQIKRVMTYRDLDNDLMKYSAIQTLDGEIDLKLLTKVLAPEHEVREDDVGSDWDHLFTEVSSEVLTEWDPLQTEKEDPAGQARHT
The description is as above.

Assay [4] addresses T1, IFT43 with a GFP tag at the C-terminus (human). Kind of assay: affinity co-purification (GFP nanobody beads) and SEC; IFT-A (-IFT140) co-expressed in HEK293F, captured by the GFP on IFT43, GFP cleaved, Superose 6.
Assay [5] addresses T4, GST-tagged TULP3 WT (human) (UniProt O75386).
T4 sequence: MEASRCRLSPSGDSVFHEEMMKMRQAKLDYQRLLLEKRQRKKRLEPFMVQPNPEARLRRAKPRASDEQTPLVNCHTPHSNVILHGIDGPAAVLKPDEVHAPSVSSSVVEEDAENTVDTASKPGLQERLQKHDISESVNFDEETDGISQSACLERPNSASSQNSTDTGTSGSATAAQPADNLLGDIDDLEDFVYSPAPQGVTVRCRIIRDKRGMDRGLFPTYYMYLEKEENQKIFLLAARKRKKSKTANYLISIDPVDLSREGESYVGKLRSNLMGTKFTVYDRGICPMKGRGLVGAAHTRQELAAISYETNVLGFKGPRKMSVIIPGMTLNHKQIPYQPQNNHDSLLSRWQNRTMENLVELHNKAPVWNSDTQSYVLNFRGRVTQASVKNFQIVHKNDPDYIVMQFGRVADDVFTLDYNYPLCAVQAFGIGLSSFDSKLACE
Kind of assay: pull-down; 10 ug GST-TULP3 variant on GST beads, 330 ug IFT-A in solution; 20 mM Tris-HCl pH 8.0, 70 mM or 100 mM NaCl, 2 mM DTT, 4 °C, 2 h; Coomassie-stained SDS-PAGE; both purified.

Assay [6] concerns the target T5, IFT139 (TTC21B/THM1) with N-terminal mCherry tag (human) (UniProt Q7Z4L5).
T5 sequence: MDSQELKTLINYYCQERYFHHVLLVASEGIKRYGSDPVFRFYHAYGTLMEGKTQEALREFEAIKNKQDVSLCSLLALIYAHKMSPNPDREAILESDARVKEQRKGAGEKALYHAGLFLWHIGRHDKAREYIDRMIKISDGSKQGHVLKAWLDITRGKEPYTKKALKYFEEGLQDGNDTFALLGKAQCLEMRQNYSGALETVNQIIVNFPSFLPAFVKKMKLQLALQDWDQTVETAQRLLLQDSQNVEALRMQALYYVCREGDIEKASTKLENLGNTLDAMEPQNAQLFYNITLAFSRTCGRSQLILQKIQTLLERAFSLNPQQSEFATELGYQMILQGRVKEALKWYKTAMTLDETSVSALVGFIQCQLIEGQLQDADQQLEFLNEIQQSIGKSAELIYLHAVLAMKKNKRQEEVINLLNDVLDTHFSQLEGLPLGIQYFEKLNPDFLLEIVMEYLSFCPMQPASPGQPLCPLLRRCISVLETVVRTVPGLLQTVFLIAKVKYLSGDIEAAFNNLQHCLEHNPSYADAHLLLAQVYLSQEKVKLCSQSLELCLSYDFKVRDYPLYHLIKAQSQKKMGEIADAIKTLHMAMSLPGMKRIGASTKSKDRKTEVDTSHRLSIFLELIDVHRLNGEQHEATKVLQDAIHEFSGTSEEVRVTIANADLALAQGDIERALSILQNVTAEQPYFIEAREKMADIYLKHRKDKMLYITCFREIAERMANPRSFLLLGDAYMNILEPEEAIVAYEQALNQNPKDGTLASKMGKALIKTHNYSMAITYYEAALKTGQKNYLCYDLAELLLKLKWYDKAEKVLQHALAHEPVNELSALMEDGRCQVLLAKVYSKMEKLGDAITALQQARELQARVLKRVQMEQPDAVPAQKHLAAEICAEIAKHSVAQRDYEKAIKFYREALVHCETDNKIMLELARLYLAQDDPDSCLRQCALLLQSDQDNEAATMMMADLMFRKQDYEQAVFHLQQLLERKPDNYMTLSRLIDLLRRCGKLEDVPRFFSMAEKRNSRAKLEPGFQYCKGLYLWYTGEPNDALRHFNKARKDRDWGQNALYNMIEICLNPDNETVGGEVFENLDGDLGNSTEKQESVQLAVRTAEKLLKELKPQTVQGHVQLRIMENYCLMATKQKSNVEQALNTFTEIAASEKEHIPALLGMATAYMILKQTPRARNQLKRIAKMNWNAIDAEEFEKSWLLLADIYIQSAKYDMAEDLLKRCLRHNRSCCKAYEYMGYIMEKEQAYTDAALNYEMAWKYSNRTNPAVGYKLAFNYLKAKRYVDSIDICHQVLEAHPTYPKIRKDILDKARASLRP
Kind of assay: cryo-EM structure; IFT-A complex co-expressed in HEK293F and co-purified; composite map from the IFT-A and IFT-A (-IFT139) datasets; 20 mM Tris-HCl pH 8.0, 200 mM NaCl, 2 mM DTT, 2 mM FFC-8 added; both purified.

The next assay addresses T6, IFT121 (WDR35) (human) (UniProt Q9P2L0).
T6 sequence: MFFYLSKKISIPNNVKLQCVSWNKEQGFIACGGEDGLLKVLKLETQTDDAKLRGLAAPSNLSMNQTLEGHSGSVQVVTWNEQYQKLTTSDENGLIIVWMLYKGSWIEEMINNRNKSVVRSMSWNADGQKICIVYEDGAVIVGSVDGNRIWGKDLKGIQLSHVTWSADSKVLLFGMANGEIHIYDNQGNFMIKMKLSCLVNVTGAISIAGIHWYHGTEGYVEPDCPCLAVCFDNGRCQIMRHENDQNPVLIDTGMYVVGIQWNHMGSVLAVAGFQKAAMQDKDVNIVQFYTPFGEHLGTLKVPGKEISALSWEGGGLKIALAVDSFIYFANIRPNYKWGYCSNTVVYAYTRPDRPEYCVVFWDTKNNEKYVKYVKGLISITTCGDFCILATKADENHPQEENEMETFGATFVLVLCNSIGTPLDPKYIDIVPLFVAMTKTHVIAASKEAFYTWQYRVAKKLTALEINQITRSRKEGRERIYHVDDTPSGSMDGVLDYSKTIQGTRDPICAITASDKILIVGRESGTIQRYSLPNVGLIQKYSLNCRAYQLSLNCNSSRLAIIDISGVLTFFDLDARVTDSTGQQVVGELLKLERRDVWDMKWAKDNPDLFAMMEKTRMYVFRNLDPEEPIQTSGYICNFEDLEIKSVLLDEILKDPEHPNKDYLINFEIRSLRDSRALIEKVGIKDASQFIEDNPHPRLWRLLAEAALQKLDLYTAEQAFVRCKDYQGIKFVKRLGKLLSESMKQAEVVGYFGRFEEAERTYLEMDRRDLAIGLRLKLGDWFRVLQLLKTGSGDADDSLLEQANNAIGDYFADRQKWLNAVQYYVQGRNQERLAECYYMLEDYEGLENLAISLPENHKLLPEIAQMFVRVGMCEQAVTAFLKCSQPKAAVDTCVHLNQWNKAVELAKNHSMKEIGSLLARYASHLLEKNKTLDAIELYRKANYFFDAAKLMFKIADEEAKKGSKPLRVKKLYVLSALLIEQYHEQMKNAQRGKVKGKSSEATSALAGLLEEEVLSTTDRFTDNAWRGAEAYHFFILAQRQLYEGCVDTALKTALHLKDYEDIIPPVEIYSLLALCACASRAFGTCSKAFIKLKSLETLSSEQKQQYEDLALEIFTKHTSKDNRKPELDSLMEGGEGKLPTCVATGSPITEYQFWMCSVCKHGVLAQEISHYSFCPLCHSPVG
The description is as above.

“the rest IFT-A components (IFT144, IFT140, IFT139, IFT122, IFT121) (from UniProt Q8NEZ3-1 1-1342; Q96RY7-1 1-1462; Q7Z4L5 1-1316; Q9HBG6 1-1241; Q9P2L0 1-1181) (complex)”: the binding result in assay [1], in assay [2] and in assay [3] was “binds” throughout.

“IFT-A subunits without IFT140 and IFT43 (IFT144, IFT139, IFT122, IFT121) (from UniProt Q8NEZ3-1 1-1342; Q7Z4L5 1-1316; Q9HBG6 1-1241; Q9P2L0 1-1181) (complex)”: the binding entry in assay [1] and in assay [4] was “binds” throughout.

“human IFT-A complex (IFT144, IFT140, IFT139, IFT122, IFT121, IFT43) (from UniProt Q8NEZ3-1 1-1342; Q96RY7-1 1-1462; Q7Z4L5 1-1316; Q9HBG6 1-1241; Q9P2L0 1-1181; Q96FT9-1 1-208)”: the binding entry in assay [5] is “binds”.

B1: IFT43 (GFP tag cleaved) (protein, UniProt Q96FT9-1 1-208)
chain: MEDLLDLDEELRYSLATSRAKMGRRAQQESAQAENHLNGKNSSLTLTGETSSAKLPRCRQGGWAGDSVKASKFRRKASEEIEDFRLRPQSLNGSDYGGDIPIIPDLEEVQEEDFVLQVAAPPSIQIKRVMTYRDLDNDLMKYSAIQTLDGEIDLKLLTKVLAPEHEVREDDVGWDWDHLFTEVSSEVLTEWDPLQTEKEDPAGQARHT
On to B1, for which the binding entry (in assay [6]; with IFT121 (WDR35) (human)) was “binds” each time.
